Laboratory results: ChEMBL document CHEMBL5576120, “Discovery and In Vivo Efficacy of AZ-PRMT5i-1, a Novel PRMT5 Inhibitor with High MTA Cooperativity” (J Med Chem, 2024)
≈ marks a conversion by molar mass, not a printed value.

Assays:
physchem [1] = conditions: buffer, pH 7.4
physchem [2] = conditions: buffer, pH 7.4; remark: listed apart in the source

| SMILES | solubility at 24 h (physchem [1]) [µM] | logD (physchem [2]) |
| --- | --- | --- |
| Nc1ccc2[nH]c(CN3C(=O)c4cc(F)ccc4[C@]34CCN(Cc3ccc(F)cc3)C4=O)nc2n1 | 413 (≈ 196 µg/mL) | 2 |
| N=C(N)Nc1ncc(CN2C(=O)c3ccccc3C2C(=O)NCc2ccc(F)cc2)s1 (centres undefined) | 317 (≈ 139 µg/mL) | 2.1 |
